These are yes or no findings as the source states them, for the method shown. Binding seen in cells or lysates may run through a third protein. Here binding means that the protein was enriched with, or labelled near, the bait; the list need not be complete. Tags and fused reporters may be left off the sequences shown. Values belong to the molecule of their own block, whether it stands above or below them.
Molecular target: T1, FGT1-YFP fusion protein (35S::FGT1-YFP) (A. thaliana) (UniProt F4IF36)
T1 sequence: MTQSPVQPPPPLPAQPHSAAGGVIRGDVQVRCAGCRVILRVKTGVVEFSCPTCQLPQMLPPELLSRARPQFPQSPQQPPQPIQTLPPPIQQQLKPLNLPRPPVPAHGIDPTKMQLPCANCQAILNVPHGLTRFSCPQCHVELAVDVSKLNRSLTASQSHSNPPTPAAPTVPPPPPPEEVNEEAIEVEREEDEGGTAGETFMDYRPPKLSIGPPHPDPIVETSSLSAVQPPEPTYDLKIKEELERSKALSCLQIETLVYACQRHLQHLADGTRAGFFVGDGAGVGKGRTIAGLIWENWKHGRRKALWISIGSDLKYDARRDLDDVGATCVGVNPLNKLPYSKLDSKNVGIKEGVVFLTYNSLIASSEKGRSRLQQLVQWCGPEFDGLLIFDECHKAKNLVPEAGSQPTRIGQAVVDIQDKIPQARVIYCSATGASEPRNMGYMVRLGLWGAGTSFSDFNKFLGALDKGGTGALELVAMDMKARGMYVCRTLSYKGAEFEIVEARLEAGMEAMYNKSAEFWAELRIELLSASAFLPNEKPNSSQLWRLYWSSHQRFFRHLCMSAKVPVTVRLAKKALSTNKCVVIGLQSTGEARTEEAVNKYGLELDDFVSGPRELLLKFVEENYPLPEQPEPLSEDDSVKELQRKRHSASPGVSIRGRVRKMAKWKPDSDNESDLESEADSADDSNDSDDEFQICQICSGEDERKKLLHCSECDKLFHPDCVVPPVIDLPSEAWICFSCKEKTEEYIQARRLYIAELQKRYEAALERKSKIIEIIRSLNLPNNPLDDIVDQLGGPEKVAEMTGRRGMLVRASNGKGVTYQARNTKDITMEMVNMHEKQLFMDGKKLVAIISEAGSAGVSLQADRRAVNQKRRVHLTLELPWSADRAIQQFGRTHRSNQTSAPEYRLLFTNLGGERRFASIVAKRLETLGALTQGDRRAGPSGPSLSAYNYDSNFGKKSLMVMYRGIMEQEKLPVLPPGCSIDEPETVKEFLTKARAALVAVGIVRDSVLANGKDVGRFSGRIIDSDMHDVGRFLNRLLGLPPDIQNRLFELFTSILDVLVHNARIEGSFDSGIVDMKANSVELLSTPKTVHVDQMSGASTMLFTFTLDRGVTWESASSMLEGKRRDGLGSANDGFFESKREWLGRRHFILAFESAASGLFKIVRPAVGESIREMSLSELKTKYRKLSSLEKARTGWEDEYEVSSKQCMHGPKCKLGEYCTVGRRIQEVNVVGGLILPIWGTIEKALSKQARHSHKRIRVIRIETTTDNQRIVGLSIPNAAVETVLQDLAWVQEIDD
Assay: affinity purification with mass spectrometry; native FGT1-YFP complexes from nuclear extracts of 35S::FGT1-YFP seedlings 28 h after ACC or NHS, α-GFP paramagnetic beads 1.5 h at 4°C, elution in 8 M urea, trypsin digest, nHPLC-MS/MS; controls 35S::YFP and Col-0

Protein sequences, listed by entry. Tags and fused reporters are not part of them.
UniProt F4JY24: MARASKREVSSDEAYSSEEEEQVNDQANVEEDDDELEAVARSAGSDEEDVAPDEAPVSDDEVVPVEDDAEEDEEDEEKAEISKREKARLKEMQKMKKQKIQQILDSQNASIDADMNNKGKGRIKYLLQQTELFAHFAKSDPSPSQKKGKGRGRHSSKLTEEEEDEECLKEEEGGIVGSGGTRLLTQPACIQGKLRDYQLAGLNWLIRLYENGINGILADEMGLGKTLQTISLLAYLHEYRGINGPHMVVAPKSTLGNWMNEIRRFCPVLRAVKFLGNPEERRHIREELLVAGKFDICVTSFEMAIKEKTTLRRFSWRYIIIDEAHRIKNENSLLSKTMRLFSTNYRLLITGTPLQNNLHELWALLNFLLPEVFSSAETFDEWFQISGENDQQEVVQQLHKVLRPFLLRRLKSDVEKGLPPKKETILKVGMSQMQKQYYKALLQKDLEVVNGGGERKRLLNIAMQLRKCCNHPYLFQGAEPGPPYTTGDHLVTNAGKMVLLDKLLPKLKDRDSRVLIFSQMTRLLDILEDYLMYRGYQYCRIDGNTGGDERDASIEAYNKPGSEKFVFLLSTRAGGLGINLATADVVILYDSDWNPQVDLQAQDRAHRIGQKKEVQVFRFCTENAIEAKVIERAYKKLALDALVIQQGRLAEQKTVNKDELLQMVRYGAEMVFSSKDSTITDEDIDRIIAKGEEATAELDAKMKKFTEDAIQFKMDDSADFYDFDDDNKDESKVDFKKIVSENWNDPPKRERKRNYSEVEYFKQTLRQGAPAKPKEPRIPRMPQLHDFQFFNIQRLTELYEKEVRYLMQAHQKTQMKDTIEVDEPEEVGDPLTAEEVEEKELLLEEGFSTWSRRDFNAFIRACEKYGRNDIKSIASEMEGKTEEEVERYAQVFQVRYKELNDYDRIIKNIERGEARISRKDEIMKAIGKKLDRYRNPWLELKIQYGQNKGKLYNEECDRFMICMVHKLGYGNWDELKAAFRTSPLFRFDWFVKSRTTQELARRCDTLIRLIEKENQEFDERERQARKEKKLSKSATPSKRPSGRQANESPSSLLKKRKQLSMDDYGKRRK
UniProt Q6EVK6: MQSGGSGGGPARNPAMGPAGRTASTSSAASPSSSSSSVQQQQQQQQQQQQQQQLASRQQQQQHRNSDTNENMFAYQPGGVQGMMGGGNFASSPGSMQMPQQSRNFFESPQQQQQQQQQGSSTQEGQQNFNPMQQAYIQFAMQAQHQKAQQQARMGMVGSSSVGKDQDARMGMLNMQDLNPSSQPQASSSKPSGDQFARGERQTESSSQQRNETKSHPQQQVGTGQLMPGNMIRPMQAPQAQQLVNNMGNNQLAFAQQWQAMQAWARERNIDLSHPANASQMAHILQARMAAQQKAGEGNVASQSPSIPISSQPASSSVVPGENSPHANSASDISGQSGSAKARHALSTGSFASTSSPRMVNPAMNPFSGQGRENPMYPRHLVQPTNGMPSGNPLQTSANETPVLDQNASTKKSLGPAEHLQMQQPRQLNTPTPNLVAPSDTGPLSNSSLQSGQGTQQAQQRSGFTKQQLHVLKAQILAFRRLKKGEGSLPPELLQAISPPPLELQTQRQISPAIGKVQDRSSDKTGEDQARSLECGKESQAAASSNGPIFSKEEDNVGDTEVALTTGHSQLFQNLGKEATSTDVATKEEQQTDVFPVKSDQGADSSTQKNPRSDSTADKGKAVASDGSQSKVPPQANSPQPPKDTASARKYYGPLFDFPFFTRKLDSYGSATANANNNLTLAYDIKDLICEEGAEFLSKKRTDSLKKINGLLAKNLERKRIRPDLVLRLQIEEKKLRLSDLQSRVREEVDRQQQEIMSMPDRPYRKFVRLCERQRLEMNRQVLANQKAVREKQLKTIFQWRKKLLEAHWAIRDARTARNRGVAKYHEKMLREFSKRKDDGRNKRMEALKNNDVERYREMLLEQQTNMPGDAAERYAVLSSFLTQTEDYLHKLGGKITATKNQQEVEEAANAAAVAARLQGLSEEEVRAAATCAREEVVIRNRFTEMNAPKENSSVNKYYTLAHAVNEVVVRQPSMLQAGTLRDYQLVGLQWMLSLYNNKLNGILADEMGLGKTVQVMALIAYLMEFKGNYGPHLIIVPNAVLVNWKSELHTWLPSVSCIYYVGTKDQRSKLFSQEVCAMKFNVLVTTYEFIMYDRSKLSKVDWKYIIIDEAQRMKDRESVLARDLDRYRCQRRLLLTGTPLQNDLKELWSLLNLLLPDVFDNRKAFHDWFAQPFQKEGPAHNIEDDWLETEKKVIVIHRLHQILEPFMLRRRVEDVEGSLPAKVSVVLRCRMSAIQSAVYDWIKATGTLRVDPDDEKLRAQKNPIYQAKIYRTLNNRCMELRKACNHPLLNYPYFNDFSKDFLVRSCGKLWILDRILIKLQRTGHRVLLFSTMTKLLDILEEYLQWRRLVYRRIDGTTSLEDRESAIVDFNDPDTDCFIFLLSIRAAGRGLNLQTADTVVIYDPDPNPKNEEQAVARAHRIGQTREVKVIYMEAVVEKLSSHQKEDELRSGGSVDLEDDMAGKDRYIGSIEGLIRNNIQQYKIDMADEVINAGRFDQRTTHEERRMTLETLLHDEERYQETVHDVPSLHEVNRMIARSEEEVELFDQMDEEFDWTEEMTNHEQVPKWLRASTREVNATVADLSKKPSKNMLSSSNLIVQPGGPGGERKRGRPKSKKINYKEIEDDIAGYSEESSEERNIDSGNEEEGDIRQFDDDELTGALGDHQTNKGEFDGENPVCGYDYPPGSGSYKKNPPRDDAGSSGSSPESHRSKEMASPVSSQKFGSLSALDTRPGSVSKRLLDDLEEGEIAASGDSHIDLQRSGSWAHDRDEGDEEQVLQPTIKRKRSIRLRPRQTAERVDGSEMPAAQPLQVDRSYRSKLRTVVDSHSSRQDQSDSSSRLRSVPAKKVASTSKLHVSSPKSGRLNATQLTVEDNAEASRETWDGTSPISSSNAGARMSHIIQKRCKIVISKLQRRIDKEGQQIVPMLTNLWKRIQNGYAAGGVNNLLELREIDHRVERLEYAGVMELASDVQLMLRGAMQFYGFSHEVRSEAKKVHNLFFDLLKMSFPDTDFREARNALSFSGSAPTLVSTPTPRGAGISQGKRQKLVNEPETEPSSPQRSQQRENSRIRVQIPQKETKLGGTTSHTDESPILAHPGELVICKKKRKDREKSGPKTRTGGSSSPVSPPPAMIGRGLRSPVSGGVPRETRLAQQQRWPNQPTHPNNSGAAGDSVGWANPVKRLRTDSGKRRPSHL
UniProt Q8RWY3: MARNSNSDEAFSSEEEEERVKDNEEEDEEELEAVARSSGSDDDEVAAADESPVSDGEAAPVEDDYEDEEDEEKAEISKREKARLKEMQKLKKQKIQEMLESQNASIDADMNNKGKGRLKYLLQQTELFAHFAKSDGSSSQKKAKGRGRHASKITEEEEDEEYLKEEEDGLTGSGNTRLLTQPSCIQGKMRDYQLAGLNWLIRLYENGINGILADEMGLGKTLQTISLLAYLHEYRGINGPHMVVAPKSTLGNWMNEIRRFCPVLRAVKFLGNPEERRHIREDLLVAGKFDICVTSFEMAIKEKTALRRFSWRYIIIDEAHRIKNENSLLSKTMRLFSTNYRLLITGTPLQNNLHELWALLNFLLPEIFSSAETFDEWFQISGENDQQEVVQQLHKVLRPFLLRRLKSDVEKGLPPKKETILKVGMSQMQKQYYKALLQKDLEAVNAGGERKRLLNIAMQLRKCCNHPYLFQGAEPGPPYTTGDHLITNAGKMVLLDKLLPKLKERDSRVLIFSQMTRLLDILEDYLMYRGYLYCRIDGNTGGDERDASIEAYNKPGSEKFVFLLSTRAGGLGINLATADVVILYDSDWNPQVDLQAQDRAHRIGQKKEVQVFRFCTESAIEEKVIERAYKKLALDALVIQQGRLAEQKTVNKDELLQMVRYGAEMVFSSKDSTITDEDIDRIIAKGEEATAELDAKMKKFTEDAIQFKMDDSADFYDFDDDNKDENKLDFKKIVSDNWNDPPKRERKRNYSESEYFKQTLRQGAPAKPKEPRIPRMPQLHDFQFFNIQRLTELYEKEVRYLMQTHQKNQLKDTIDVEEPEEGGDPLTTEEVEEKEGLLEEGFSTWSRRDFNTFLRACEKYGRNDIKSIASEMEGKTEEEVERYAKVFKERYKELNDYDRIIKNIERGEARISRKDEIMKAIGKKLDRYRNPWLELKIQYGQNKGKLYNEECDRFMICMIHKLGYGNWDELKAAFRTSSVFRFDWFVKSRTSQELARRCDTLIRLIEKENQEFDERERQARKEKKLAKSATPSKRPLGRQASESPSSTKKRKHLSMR

- binding: binds
Molecule: CHR17 (from UniProt F4JY24 1-1069)

- binding: binds
B1: SWI3d (protein, UniProt Q8VY05 1-985)
chain: MEEKRRDSAGTLAFAGSSGDSPASEPMPAPRRRGGGLKRKANALGGSNFFSSAPSKRMLTREKAMLASFSPVHNGPLTRARQAPSIMPSAADGVKSEVLNVAVGADGEKPKEEEERNKAIREWEALEAKIEADFEAIRSRDSNVHVVPNHCGWFSWEKIHPLEERSLPSFFNGKLEGRTSEVYREIRNWIMGKFHSNPNIQIELKDLTELEVGDSEAKQEVMEFLDYWGLINFHPFPPTDTGSTASDHDDLGDKESLLNSLYRFQVDEACPPLVHKPRFTAQATPSGLFPDPMAADELLKQEGPAVEYHCNSCSADCSRKRYHCPKQADFDLCTECFNSGKFSSDMSSSDFILMEPAEAPGVGSGKWTDQETLLLLEALEIFKENWNEIAEHVATKTKAQCMLHFLQMPIEDAFLDQIDYKDPISKDTTDLAVSKDDNSVLKDAPEEAENKKRVDEDETMKEVPEPEDGNEEKVSQESSKPGDASEETNEMEAEQKTPKLETAIEERCKDEADENIALKALTEAFEDVGHSSTPEASFSFADLGNPVMGLAAFLVRLAGSDVATASARASIKSLHSNSGMLLATRHCYILEDPPDNKKDPTKSKSCSADAEGNDDNSHKDDQPEEKSKKAEEVSLNSDDREMPDTDTGKETQDSVSEEKQPGSRTENSTTKLDAVQEKRSSKPVTTDNSEKPVDIICPSQDKCSGKELQEPLKDGNKLSSENKDASQSTVSQSAADASQPEASRDVEMKDTLQSEKDPEDVVKTVGEKVQLAKEEGANDVLSTPDKSVSQQPIGSASAPENGTAGGNPNIEGKKEKDICEGTKDKYNIEKLKRAAISAISAAAVKAKNLAKQEEDQIRQLSGSLIEKQLHKLEAKLSIFNEAESLTMRVREQLERSRQRLYHERAQIIAARLGVPPSMSSKASLPTNRIAANFANVAQRPPMGMAFPRPPMPRPPGFPVPGSFVAATTMTGSSDPSPGSDNVSSV

The next lines start with the molecule.

Molecule: BRAHMA (BRM) (from UniProt Q6EVK6 1-2193)
- binding: binds

Molecule: CHR11 (from UniProt Q8RWY3 1-1056)
- binding: binds

Molecule: SWP73b (A. thaliana (endogenous in seedlings))
- binding: binds

— PMC5040591
